Source: paper PMC4891121
Results are given in words; binding and its absence hold for the method and conditions named. Binding seen in cells or lysates may run through a third protein. Some entries that bind do so weakly or less than the wild type.

Amino acid sequences for entries named in this document (tags omitted).
UniProt Q86TM3: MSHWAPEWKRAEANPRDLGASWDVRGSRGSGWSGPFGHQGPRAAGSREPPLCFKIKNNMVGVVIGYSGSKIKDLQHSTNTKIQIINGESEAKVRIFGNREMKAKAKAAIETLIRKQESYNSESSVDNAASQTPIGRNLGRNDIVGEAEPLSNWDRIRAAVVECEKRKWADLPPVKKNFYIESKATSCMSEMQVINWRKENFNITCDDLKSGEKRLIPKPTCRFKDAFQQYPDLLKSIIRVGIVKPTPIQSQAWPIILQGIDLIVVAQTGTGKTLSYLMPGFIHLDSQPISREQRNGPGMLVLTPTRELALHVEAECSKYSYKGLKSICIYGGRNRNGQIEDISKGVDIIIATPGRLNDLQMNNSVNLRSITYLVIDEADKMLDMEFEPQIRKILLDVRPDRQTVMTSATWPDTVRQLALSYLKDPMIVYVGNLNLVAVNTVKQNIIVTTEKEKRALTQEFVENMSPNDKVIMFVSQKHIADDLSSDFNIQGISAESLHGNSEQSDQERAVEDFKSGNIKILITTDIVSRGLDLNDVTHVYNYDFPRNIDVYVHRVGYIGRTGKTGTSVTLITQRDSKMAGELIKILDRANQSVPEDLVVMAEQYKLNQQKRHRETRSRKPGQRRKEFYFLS

Columns and labels:
[1] = target: HER2 (human (endogenous in Malme3M^R)) (UniProt P04626); assay: co-IP; lysates of Malme3M^R cells treated with the indicated peptide (10 μM) for 48 h, immunoprecipitation and immunoblot
[2] = target: HER2 (human (endogenous in Malme3M^R)) (UniProt P04626); assay: co-IP; lysates of Malme3M^R cells transfected with CAGE siRNA (10 nM, 48 h), immunoprecipitated with the indicated antibody (2 μg/ml), then immunoblot
[3] = target: HER2 (human (endogenous in Malme3M^R)) (UniProt P04626); assay: condition: only in cells that stably express miR-217 (lower expression of CAGE and HER2); co-IP; lysates of Malme3M^R-miR-217 cells (stably express miR-217), immunoprecipitation and immunoblot
[4] = target: HER2 (human (endogenous in Malme3M^R)) (UniProt P04626); assay: condition: only CAGE siRNA (100 nM) injected in vivo; co-IP; tumor tissue lysates (RIPA buffer) of Malme3M^R xenografts after in vivo down-regulation of CAGE (CAGE siRNA 100 nM via tail vein), immunoprecipitation and immunoblot
[5] = target: T1, CAGE-derived ^269GTGKT^273 peptide (human); assay: co-IP; immunoprecipitation of biotin-labeled GTGKT peptide; personal observations, not shown
T1 sequence (peptide, biotin-labeled in the immunoprecipitation (position not stated)): GTGKT

[6] = target: HER2 (human (endogenous in Malme3M^R)) (UniProt P04626); assay: co-IP; tumor tissue lysates (RIPA buffer) of Malme3M^R xenografts in nude mice, scrambled siRNA, immunoprecipitation and immunoblot
[7] = target: HER2 (human (endogenous in Malme3M^R)) (UniProt P04626); assay: co-IP; Malme3M^R cell lysates immunoprecipitated with the indicated antibody (2 μg/ml), then immunoblot; cells untreated, treated with IgG, cetuximab (10 μg/ml) or gefitinib (1 μM) for 24 h, or transfected with control or EGFR siRNA (10 nM, 48 h)
[8] = target: pEGFR^Y845 (human (endogenous in Malme3M^R)) (UniProt P00533); assay: as above
[9] = target: HER2 (human (endogenous in Malme3M^R)) (UniProt P04626); assay: co-IP; lysates of Malme3M^R-miR-217 cells transfected with miR-217 inhibitor, immunoprecipitation and immunoblot

CAGE, a cancer/testis antigen (from UniProt Q86TM3 1-631)
binding [1]: binds
binding [2]: no binding (condition: CAGE siRNA (10 nM))
binding [3]: no binding
binding [4]: no binding
binding [5]: binds
binding [6]: binds
binding [7]: binds
binding [8]: binds
binding [9]: binds
